Values from PubChem BioAssay AID743121 (NCATS, 2013)

Assay: 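Partners whose loss is lethal together with topoisomerase I blockade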 (primary screen)
Cells: MDA-MB-231 cells, a human breast cancer line
Knock-down reagent: single siRNA against human genes, 20 nM siRNA (0.8 pmol per well)
Timing: 120 h (drug added 48 h after transfection, read 72 h later)
Challenge: camptothecin 20 nM (about EC30) for 72 h; vehicle 0.1% DMSO in parallel plates
Detection: 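CellTiter-Glo ATP signal, scaled to control siRNA as percent viability; sensitisation given as log2 of untreated divided by camptothecin-treated viability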
Reading the numbers: log2 vehicle/camptothecin viability: higher = stronger sensitisation to camptothecin
Active means: 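Active genes have an RSA gene-level p-value below 0.001, computed from the ratios of their separate siRNAs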
Shown is one part, drawn at random, of about 26,000 reagents tested. 167 of them (0.63%) count as active. 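Calls are per gene from RSA p-values that are not deposited; an individual active-marked siRNA can sensitise only weakly.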 A number with no mark means an inactive call. Reagents against one gene are numbered here. Not all columns of the deposit are shown.

With HSDL1 (hydroxysteroid dehydrogenase like 1) #1, what was measured?
log2 vehicle/camptothecin viability: -0.0922

With HSDL1 (hydroxysteroid dehydrogenase like 1) #2, how do the results read?
log2 vehicle/camptothecin viability: -0.0665

Which result is listed for HSDL1 (hydroxysteroid dehydrogenase like 1) #3?
log2 vehicle/camptothecin viability: -0.0853

How did the screen score HSDL1 (hydroxysteroid dehydrogenase like 1) #4?
log2 vehicle/camptothecin viability: -0.226

For RBL1 (RB transcriptional corepressor like 1) #1, what does the deposit list?
log2 vehicle/camptothecin viability: 0.791

How did the screen score RBL1 (RB transcriptional corepressor like 1) #2?
log2 vehicle/camptothecin viability: -0.216

Which result is listed for RBL1 (RB transcriptional corepressor like 1) #3?
log2 vehicle/camptothecin viability: -0.327

For DUSP6 (dual specificity phosphatase 6) #1, what was measured?
log2 vehicle/camptothecin viability: 0.0123

With DUSP6 (dual specificity phosphatase 6) #2, how do the results read?
log2 vehicle/camptothecin viability: 0.228

How did the screen score DUSP6 (dual specificity phosphatase 6) #3?
log2 vehicle/camptothecin viability: -0.384

What did the screen give for DUSP6 (dual specificity phosphatase 6) #4?
log2 vehicle/camptothecin viability: 0.531

How did the screen score PSKH1 (protein serine kinase H1) #1?
log2 vehicle/camptothecin viability: 0.175

With PSKH1 (protein serine kinase H1) #2, what was measured?
log2 vehicle/camptothecin viability: -0.332

Which result is listed for PSKH1 (protein serine kinase H1) #3?
log2 vehicle/camptothecin viability: -0.284

What is on record for PSKH1 (protein serine kinase H1) #4?
log2 vehicle/camptothecin viability: -0.255

With CASP4 (caspase 4) #1, what does the deposit list?
log2 vehicle/camptothecin viability: -0.269

With CASP4 (caspase 4) #2, what was measured?
log2 vehicle/camptothecin viability: -0.139

How did the screen score CASP4 (caspase 4) #3?
log2 vehicle/camptothecin viability: -1.14

How did the screen score CASP4 (caspase 4) #4?
log2 vehicle/camptothecin viability: -0.409

Which result is listed for MCHR1 (melanin concentrating hormone receptor 1) #1?
log2 vehicle/camptothecin viability: -0.0238

What did the screen give for MCHR1 (melanin concentrating hormone receptor 1) #2?
log2 vehicle/camptothecin viability: -0.0093

With MCHR1 (melanin concentrating hormone receptor 1) #3, what was measured?
log2 vehicle/camptothecin viability: -0.248

What did the screen give for MCHR1 (melanin concentrating hormone receptor 1) #4?
log2 vehicle/camptothecin viability: -0.16

No new results follow: an excerpt of the list.
HSDL1 (hydroxysteroid dehydrogenase like 1) #1: log2 vehicle/camptothecin viability = -0.0922
HSDL1 (hydroxysteroid dehydrogenase like 1) #2: log2 vehicle/camptothecin viability = -0.0665
HSDL1 (hydroxysteroid dehydrogenase like 1) #3: log2 vehicle/camptothecin viability = -0.0853

Next records follow.
For USP13 (ubiquitin specific peptidase 13) #1, how do the results read?
log2 vehicle/camptothecin viability: 0.0172

With USP13 (ubiquitin specific peptidase 13) #2, how do the results read?
log2 vehicle/camptothecin viability: -0.197

Which result is listed for USP13 (ubiquitin specific peptidase 13) #3?
log2 vehicle/camptothecin viability: -0.428

With USP13 (ubiquitin specific peptidase 13) #4, what was measured?
log2 vehicle/camptothecin viability: 0.865

With SYNE1 (spectrin repeat containing nuclear envelope protein 1) #1, what does the deposit list?
log2 vehicle/camptothecin viability: -0.32

How did the screen score SYNE1 (spectrin repeat containing nuclear envelope protein 1) #2?
log2 vehicle/camptothecin viability: 0.262

How did the screen score SYNE1 (spectrin repeat containing nuclear envelope protein 1) #3?
log2 vehicle/camptothecin viability: 0.255

For SYNE1 (spectrin repeat containing nuclear envelope protein 1) #4, how do the results read?
log2 vehicle/camptothecin viability: -0.0544

What is on record for MAOA (monoamine oxidase A) #1?
log2 vehicle/camptothecin viability: -0.322

For MAOA (monoamine oxidase A) #2, how do the results read?
log2 vehicle/camptothecin viability: 0.0944

How did the screen score MAOA (monoamine oxidase A) #3?
log2 vehicle/camptothecin viability: -0.061

What did the screen give for MAOA (monoamine oxidase A) #4?
log2 vehicle/camptothecin viability: -0.115
